Laboratory results taken from patent US20060257938A1, “Method of screening for drugs that block ligand binding to a lipid binding protein” (priority 2005, published 2006).

Experiment: Baseline fluorescence ratio Ro of probe in absence of analyte
Details: baseline fluorescence ratio of probe

Row | Molecule | Ro
1 | 17I, 72A (protein, listed as Rattus norvegicus, PEPTIDE (1)...(131) wild-type rat intestinal fatty acid binding protein) AFDGTWKVDRNENYEKIMEKMGINVVKRKLGAHDNLKLTITQEGNKFTVKESSNFRNIDVVFELGVDFAYSAADGTELTGTWTMEGNKLVGKFKRVDNGKELIAVREISGNELIQTYTYEGVEAKRIFKKE | 0.258
2 | 17L, 72A (protein, listed as Rattus norvegicus, PEPTIDE (1)...(131) wild-type rat intestinal fatty acid binding protein) AFDGTWKVDRNENYEKLMEKMGINVVKRKLGAHDNLKLTITQEGNKFTVKESSNFRNIDVVFELGVDFAYSAADGTELTGTWTMEGNKLVGKFKRVDNGKELIAVREISGNELIQTYTYEGVEAKRIFKKE | 0.251
3 | 17M, 72A (protein, listed as Rattus norvegicus, PEPTIDE (1)...(131) wild-type rat intestinal fatty acid binding protein) AFDGTWKVDRNENYEKMMEKMGINVVKRKLGAHDNLKLTITQEGNKFTVKESSNFRNIDVVFELGVDFAYSAADGTELTGTWTMEGNKLVGKFKRVDNGKELIAVREISGNELIQTYTYEGVEAKRIFKKE | 0.296

Same assay, conditions: baseline fluorescence ratio of probe, no fatty acid

Row | Molecule | AvgOfRo | Ro
4 | 14N, 72A (protein, listed as Rattus norvegicus, PEPTIDE (1)...(131) wild-type rat intestinal fatty acid binding protein) AFDGTWKVDRNENNEKFMEKMGINVVKRKLGAHDNLKLTITQEGNKFTVKESSNFRNIDVVFELGVDFAYSAADGTELTGTWTMEGNKLVGKFKRVDNGKELIAVREISGNELIQTYTYEGVEAKRIFKKE | 0.45 | –
5 | 14P, 72A (protein, listed as Rattus norvegicus, PEPTIDE (1)...(131) wild-type rat intestinal fatty acid binding protein) AFDGTWKVDRNENPEKFMEKMGINVVKRKLGAHDNLKLTITQEGNKFTVKESSNFRNIDVVFELGVDFAYSAADGTELTGTWTMEGNKLVGKFKRVDNGKELIAVREISGNELIQTYTYEGVEAKRIFKKE | 0.46 | –
6 | 14Q, 72A (protein, listed as Rattus norvegicus, PEPTIDE (1)...(131) wild-type rat intestinal fatty acid binding protein) AFDGTWKVDRNENQEKFMEKMGINVVKRKLGAHDNLKLTITQEGNKFTVKESSNFRNIDVVFELGVDFAYSAADGTELTGTWTMEGNKLVGKFKRVDNGKELIAVREISGNELIQTYTYEGVEAKRIFKKE | 0.40 | –
7 | 102K, 72A (protein, listed as Rattus norvegicus, PEPTIDE (1)...(131) wild-type rat intestinal fatty acid binding protein) AFDGTWKVDRNENYEKFMEKMGINVVKRKLGAHDNLKLTITQEGNKFTVKESSNFRNIDVVFELGVDFAYSAADGTELTGTWTMEGNKLVGKFKRVDNGKEKIAVREISGNELIQTYTYEGVEAKRIFKKE | 0.39 | –
8 | 14R, 72A (protein, listed as Rattus norvegicus, PEPTIDE (1)...(131) wild-type rat intestinal fatty acid binding protein) AFDGTWKVDRNENREKFMEKMGINVVKRKLGAHDNLKLTITQEGNKFTVKESSNFRNIDVVFELGVDFAYSAADGTELTGTWTMEGNKLVGKFKRVDNGKELIAVREISGNELIQTYTYEGVEAKRIFKKE | 0.41 | –
9 | 14S, 72A (protein, listed as Rattus norvegicus, PEPTIDE (1)...(131) wild-type rat intestinal fatty acid binding protein) AFDGTWKVDRNENSEKFMEKMGINVVKRKLGAHDNLKLTITQEGNKFTVKESSNFRNIDVVFELGVDFAYSAADGTELTGTWTMEGNKLVGKFKRVDNGKELIAVREISGNELIQTYTYEGVEAKRIFKKE | 0.46 | –
10 | 14T, 72A (protein, listed as Rattus norvegicus, PEPTIDE (1)...(131) wild-type rat intestinal fatty acid binding protein) AFDGTWKVDRNENTEKFMEKMGINVVKRKLGAHDNLKLTITQEGNKFTVKESSNFRNIDVVFELGVDFAYSAADGTELTGTWTMEGNKLVGKFKRVDNGKELIAVREISGNELIQTYTYEGVEAKRIFKKE | 0.46 | –
11 | 14V, 72A (protein, listed as Rattus norvegicus, PEPTIDE (1)...(131) wild-type rat intestinal fatty acid binding protein) AFDGTWKVDRNENVEKFMEKMGINVVKRKLGAHDNLKLTITQEGNKFTVKESSNFRNIDVVFELGVDFAYSAADGTELTGTWTMEGNKLVGKFKRVDNGKELIAVREISGNELIQTYTYEGVEAKRIFKKE | 0.32 | 0.317
12 | 14W, 72A (protein, listed as Rattus norvegicus, PEPTIDE (1)...(131) wild-type rat intestinal fatty acid binding protein) AFDGTWKVDRNENWEKFMEKMGINVVKRKLGAHDNLKLTITQEGNKFTVKESSNFRNIDVVFELGVDFAYSAADGTELTGTWTMEGNKLVGKFKRVDNGKELIAVREISGNELIQTYTYEGVEAKRIFKKE | 0.11 | –
13 | 17A, 72A (protein, listed as Rattus norvegicus, PEPTIDE (1)...(131) wild-type rat intestinal fatty acid binding protein) AFDGTWKVDRNENYEKAMEKMGINVVKRKLGAHDNLKLTITQEGNKFTVKESSNFRNIDVVFELGVDFAYSAADGTELTGTWTMEGNKLVGKFKRVDNGKELIAVREISGNELIQTYTYEGVEAKRIFKKE | 0.28 | –
14 | 17C, 72A (protein, listed as Rattus norvegicus, PEPTIDE (1)...(131) wild-type rat intestinal fatty acid binding protein) AFDGTWKVDRNENYEKCMEKMGINVVKRKLGAHDNLKLTITQEGNKFTVKESSNFRNIDVVFELGVDFAYSAADGTELTGTWTMEGNKLVGKFKRVDNGKELIAVREISGNELIQTYTYEGVEAKRIFKKE | 0.36 | –
15 | 17D, 72A (protein, listed as Rattus norvegicus, PEPTIDE (1)...(131) wild-type rat intestinal fatty acid binding protein) AFDGTWKVDRNENYEKDMEKMGINVVKRKLGAHDNLKLTITQEGNKFTVKESSNFRNIDVVFELGVDFAYSAADGTELTGTWTMEGNKLVGKFKRVDNGKELIAVREISGNELIQTYTYEGVEAKRIFKKE | 0.40 | –
16 | 102L, 72A (protein, listed as Rattus norvegicus, PEPTIDE (1)...(131) wild-type rat intestinal fatty acid binding protein) AFDGTWKVDRNENYEKFMEKMGINVVKRKLGAHDNLKLTITQEGNKFTVKESSNFRNIDVVFELGVDFAYSAADGTELTGTWTMEGNKLVGKFKRVDNGKELIAVREISGNELIQTYTYEGVEAKRIFKKE | 0.22 | 0.154
17 | 17E, 72A (protein, listed as Rattus norvegicus, PEPTIDE (1)...(131) wild-type rat intestinal fatty acid binding protein) AFDGTWKVDRNENYEKEMEKMGINVVKRKLGAHDNLKLTITQEGNKFTVKESSNFRNIDVVFELGVDFAYSAADGTELTGTWTMEGNKLVGKFKRVDNGKELIAVREISGNELIQTYTYEGVEAKRIFKKE | 0.27 | –
18 | 17F, 72A (protein, listed as Rattus norvegicus, PEPTIDE (1)...(131) wild-type rat intestinal fatty acid binding protein) AFDGTWKVDRNENYEKFMEKMGINVVKRKLGAHDNLKLTITQEGNKFTVKESSNFRNIDVVFELGVDFAYSAADGTELTGTWTMEGNKLVGKFKRVDNGKELIAVREISGNELIQTYTYEGVEAKRIFKKE | 0.19 | –
19 | 17G, 72A (protein, listed as Rattus norvegicus, PEPTIDE (1)...(131) wild-type rat intestinal fatty acid binding protein) AFDGTWKVDRNENYEKGMEKMGINVVKRKLGAHDNLKLTITQEGNKFTVKESSNFRNIDVVFELGVDFAYSAADGTELTGTWTMEGNKLVGKFKRVDNGKELIAVREISGNELIQTYTYEGVEAKRIFKKE | 0.39 | –
20 | 17H, 72A (protein, listed as Rattus norvegicus, PEPTIDE (1)...(131) wild-type rat intestinal fatty acid binding protein) AFDGTWKVDRNENYEKHMEKMGINVVKRKLGAHDNLKLTITQEGNKFTVKESSNFRNIDVVFELGVDFAYSAADGTELTGTWTMEGNKLVGKFKRVDNGKELIAVREISGNELIQTYTYEGVEAKRIFKKE | 0.36 | –
21 | 17I, 72A (protein, listed as Rattus norvegicus, PEPTIDE (1)...(131) wild-type rat intestinal fatty acid binding protein) AFDGTWKVDRNENYEKIMEKMGINVVKRKLGAHDNLKLTITQEGNKFTVKESSNFRNIDVVFELGVDFAYSAADGTELTGTWTMEGNKLVGKFKRVDNGKELIAVREISGNELIQTYTYEGVEAKRIFKKE | 0.26 | 0.258
22 | 17K 72A (protein, listed as Rattus norvegicus, PEPTIDE (1)...(131) wild-type rat intestinal fatty acid binding protein) AFDGTWKVDRNENYEKKMEKMGINVVKRKLGAHDNLKLTITQEGNKFTVKESSNFRNIDVVFELGVDFAYSAADGTELTGTWTMEGNKLVGKFKRVDNGKELIAVREISGNELIQTYTYEGVEAKRIFKKE | 0.41 | –
23 | 17L, 72A (protein, listed as Rattus norvegicus, PEPTIDE (1)...(131) wild-type rat intestinal fatty acid binding protein) AFDGTWKVDRNENYEKLMEKMGINVVKRKLGAHDNLKLTITQEGNKFTVKESSNFRNIDVVFELGVDFAYSAADGTELTGTWTMEGNKLVGKFKRVDNGKELIAVREISGNELIQTYTYEGVEAKRIFKKE | 0.25 | –
24 | 17M, 72A (protein, listed as Rattus norvegicus, PEPTIDE (1)...(131) wild-type rat intestinal fatty acid binding protein) AFDGTWKVDRNENYEKMMEKMGINVVKRKLGAHDNLKLTITQEGNKFTVKESSNFRNIDVVFELGVDFAYSAADGTELTGTWTMEGNKLVGKFKRVDNGKELIAVREISGNELIQTYTYEGVEAKRIFKKE | 0.30 | –
25 | 17N, 72A (protein, listed as Rattus norvegicus, PEPTIDE (1)...(131) wild-type rat intestinal fatty acid binding protein) AFDGTWKVDRNENYEKNMEKMGINVVKRKLGAHDNLKLTITQEGNKFTVKESSNFRNIDVVFELGVDFAYSAADGTELTGTWTMEGNKLVGKFKRVDNGKELIAVREISGNELIQTYTYEGVEAKRIFKKE | 0.34 | –
26 | 17P, 72A (protein, listed as Rattus norvegicus, PEPTIDE (1)...(131) wild-type rat intestinal fatty acid binding protein) AFDGTWKVDRNENYEKPMEKMGINVVKRKLGAHDNLKLTITQEGNKFTVKESSNFRNIDVVFELGVDFAYSAADGTELTGTWTMEGNKLVGKFKRVDNGKELIAVREISGNELIQTYTYEGVEAKRIFKKE | 0.45 | –
